Results on one substance are retold here after publication PMC2919464.

Protein sequences, listed by entry. Tags and fused reporters are not part of them.
UniProt P11802: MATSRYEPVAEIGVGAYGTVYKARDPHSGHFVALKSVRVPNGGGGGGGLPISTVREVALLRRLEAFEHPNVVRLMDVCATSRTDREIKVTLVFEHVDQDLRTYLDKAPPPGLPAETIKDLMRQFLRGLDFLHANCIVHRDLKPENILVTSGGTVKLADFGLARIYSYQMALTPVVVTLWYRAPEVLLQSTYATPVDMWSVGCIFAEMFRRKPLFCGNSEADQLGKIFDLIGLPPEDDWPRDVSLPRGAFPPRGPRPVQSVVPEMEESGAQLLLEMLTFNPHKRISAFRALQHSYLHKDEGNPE
UniProt P24385: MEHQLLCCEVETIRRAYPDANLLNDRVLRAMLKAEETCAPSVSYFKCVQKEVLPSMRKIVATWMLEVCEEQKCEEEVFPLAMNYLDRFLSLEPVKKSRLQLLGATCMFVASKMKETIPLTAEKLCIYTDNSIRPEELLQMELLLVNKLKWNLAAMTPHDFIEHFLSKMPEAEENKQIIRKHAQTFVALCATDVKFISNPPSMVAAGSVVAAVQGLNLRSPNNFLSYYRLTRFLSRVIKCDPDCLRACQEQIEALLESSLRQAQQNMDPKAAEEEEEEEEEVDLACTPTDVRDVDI

The experiment concerns the target LexA-Cdk4 (UniProt P11802). As to the kind of experiment: two-hybrid; yeast interaction mating: haploid strains with LexA DBD fusions (baits) mated with strains with B42 AD fusions (preys); diploids grown on selective media.

Results are given in words; binding and its absence hold for the method and conditions named. Some results given as binding are weak or reduced against the parent protein; the word gives no strength.

In the case of “AD-CyclinD1 (B42 activation domain fused to Cyclin D1) (from UniProt P24385 1-295)”, the binding entry is “binds”.
